# According to the supplement of paper PMC10032668:
# Protein sequences, listed by entry. Tags and fused reporters are not part of them.
# EIF2B5, Q13144, UniProt Q13144, whole entry: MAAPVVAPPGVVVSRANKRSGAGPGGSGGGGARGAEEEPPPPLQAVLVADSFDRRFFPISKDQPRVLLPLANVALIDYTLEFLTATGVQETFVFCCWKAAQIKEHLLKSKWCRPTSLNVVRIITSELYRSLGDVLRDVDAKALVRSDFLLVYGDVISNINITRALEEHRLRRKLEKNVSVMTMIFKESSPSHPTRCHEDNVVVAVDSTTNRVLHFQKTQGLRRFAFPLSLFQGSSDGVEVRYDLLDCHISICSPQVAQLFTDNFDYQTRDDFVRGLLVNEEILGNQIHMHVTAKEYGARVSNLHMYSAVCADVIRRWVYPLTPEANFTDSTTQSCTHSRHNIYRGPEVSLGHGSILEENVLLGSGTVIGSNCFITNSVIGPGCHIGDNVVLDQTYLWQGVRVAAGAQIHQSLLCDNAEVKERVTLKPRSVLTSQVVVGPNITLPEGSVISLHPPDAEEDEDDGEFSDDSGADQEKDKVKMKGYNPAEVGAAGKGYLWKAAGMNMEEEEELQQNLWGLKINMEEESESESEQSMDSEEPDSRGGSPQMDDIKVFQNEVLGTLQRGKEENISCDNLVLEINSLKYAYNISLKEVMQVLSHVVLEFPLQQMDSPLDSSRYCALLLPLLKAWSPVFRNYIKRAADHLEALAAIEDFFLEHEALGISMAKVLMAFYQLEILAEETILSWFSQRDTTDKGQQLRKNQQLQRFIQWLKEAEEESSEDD
# INTS12, Q96CB8, UniProt Q96CB8, whole entry: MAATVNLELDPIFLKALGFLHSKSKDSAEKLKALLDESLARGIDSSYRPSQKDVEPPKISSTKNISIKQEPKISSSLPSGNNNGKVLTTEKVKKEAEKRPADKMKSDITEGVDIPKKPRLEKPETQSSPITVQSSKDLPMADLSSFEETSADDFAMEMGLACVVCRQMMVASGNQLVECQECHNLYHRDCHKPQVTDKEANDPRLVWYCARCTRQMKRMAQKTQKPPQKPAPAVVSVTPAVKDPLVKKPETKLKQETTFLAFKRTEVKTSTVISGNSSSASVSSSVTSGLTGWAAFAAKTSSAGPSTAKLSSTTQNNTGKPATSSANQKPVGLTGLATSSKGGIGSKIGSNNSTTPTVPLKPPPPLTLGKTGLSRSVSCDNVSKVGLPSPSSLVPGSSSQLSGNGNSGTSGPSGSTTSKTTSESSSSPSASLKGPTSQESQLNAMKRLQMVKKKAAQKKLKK
# NMNAT1, Q9HAN9, UniProt Q9HAN9, whole entry: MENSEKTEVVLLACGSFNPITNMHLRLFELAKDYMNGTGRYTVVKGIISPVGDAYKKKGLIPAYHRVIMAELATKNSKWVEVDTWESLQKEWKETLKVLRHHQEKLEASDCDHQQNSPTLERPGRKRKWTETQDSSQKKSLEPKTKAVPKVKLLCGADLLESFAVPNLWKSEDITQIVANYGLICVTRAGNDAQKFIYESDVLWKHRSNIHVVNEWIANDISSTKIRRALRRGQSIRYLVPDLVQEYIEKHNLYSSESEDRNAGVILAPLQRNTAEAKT
# PHF3, Q92576, UniProt Q92576, whole entry: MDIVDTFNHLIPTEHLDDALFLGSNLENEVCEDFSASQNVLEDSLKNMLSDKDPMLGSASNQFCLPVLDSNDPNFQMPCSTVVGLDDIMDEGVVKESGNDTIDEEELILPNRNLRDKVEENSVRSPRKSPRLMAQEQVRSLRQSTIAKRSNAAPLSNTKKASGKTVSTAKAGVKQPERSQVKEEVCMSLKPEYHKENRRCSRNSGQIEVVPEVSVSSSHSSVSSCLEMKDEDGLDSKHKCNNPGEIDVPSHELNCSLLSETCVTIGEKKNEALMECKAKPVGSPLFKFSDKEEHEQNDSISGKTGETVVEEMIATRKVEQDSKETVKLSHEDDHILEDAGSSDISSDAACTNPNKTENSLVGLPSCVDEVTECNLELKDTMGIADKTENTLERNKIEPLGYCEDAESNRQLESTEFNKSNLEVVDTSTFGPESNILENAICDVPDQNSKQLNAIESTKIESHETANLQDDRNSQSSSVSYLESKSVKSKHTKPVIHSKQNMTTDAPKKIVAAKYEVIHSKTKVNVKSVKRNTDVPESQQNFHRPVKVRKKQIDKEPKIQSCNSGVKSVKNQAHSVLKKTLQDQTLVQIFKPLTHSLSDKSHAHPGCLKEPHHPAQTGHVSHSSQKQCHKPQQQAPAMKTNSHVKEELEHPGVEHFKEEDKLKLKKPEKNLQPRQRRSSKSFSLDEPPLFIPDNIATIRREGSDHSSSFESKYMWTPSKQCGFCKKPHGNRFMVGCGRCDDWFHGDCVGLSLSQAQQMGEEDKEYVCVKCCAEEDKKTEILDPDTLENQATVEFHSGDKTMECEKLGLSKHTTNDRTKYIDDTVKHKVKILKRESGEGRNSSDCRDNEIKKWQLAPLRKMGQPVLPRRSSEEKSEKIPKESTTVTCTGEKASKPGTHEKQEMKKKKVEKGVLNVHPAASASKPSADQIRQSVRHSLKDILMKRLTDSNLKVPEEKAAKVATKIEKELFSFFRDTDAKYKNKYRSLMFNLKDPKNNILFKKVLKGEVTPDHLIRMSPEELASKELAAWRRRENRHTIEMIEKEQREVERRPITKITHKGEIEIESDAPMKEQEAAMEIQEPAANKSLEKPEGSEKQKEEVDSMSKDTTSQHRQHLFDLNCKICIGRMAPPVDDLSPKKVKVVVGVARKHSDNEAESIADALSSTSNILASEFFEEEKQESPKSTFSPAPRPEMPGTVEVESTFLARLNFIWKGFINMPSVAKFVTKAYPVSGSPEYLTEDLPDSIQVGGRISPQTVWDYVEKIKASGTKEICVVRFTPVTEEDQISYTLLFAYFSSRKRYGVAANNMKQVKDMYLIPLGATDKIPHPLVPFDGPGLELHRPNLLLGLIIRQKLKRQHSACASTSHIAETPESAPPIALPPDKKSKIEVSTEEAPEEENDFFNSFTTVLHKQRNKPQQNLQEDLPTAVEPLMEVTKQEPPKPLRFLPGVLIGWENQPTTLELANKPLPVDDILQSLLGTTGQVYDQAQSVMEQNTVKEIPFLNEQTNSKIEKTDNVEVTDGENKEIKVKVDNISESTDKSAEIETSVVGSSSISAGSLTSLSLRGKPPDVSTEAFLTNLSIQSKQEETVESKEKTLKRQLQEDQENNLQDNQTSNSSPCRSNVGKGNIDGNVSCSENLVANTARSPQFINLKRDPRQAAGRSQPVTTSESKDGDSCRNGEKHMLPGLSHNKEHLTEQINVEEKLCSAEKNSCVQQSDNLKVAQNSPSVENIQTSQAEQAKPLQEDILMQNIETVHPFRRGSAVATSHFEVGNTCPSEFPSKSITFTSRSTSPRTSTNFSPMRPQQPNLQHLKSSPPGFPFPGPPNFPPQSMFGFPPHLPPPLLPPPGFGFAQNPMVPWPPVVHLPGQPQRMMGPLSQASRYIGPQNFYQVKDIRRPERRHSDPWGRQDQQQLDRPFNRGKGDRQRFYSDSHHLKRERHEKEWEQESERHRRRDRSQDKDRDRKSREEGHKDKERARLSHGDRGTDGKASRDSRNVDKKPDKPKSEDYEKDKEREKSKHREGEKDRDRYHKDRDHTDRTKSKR
# COX4I1, P13073, UniProt P13073, whole entry: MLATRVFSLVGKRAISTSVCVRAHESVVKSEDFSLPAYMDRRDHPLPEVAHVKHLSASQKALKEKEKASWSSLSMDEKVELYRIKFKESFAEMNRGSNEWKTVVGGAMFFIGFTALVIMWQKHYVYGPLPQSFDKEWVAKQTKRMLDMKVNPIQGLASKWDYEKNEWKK
# EIF3B, P55884, UniProt P55884, whole entry: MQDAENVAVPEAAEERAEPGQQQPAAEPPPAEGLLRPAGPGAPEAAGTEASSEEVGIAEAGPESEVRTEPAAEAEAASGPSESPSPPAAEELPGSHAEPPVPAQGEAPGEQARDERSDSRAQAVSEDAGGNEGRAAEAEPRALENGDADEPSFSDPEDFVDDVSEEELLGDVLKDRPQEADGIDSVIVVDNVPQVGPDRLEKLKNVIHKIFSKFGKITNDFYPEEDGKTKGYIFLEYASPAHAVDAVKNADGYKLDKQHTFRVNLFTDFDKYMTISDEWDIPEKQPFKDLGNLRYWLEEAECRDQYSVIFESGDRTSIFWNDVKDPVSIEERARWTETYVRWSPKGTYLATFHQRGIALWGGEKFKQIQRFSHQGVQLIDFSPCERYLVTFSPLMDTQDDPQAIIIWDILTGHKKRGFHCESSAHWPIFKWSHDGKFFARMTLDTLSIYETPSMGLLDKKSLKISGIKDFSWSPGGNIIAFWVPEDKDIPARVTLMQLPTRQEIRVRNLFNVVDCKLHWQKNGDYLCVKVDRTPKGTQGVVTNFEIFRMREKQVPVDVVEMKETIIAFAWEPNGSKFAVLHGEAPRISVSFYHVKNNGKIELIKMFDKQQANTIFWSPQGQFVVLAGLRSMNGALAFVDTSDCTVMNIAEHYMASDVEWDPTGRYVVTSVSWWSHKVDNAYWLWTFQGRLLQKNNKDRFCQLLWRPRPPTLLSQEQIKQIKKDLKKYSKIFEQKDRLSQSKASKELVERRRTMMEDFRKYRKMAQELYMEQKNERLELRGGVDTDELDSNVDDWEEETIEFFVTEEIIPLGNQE
# KHDRBS1, Q07666, UniProt Q07666, whole entry: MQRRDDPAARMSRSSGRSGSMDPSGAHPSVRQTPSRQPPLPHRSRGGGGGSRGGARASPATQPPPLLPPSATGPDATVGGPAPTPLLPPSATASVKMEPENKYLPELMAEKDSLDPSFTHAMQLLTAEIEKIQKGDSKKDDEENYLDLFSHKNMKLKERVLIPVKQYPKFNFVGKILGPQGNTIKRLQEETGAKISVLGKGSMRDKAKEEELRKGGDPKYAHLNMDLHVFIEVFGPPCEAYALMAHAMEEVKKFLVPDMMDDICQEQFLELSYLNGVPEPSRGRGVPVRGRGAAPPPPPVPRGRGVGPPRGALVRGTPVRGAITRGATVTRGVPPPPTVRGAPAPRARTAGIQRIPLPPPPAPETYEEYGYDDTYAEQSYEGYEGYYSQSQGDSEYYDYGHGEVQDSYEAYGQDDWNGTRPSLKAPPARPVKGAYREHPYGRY
# NDUFA10, O95299, UniProt O95299, whole entry: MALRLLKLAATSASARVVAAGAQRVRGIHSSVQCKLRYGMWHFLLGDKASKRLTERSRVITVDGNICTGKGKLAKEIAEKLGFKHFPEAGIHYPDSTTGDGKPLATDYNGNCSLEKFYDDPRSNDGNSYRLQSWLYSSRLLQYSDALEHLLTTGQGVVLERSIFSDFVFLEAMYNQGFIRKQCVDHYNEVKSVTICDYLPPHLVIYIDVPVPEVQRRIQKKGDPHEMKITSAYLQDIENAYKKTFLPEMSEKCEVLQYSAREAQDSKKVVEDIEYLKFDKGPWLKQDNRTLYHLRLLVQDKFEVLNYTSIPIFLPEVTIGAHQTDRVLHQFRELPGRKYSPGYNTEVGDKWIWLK
# NUDT21, O43809, UniProt O43809, whole entry: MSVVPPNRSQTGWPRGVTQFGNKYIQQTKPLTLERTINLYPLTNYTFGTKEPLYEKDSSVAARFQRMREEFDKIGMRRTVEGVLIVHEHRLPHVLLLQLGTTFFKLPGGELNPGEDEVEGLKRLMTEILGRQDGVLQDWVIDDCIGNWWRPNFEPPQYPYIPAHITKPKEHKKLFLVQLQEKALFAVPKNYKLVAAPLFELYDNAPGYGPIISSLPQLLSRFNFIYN
# This is one part of the list. The list holds hits alone, and they repeat only in part.
# Key:
# Assay in all cases: PRISMA enrichment of interactor (LFQ) in peptide spot vs all other peptide spots (log2 fold change); higher = stronger / more specific binding of the interactor to the peptide
# [1] = biological target: ANP32E, Q9BTT0
# Procedure: (§1)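 PRISMA: 15-aa overlapping tiles (offset 8 aa) of 60 microproteins, plus SOS1/GLUT1 control peptides, were spot-synthesized on cellulose membranes in triplicate. Membranes were incubated with benzonase-treated HEK293T lysate, and bound proteins were identified by LC-MS/MS with LFQ. Enrichment is the log2 fold change of each protein in one spot versus all other spots. Only interactors passing the significance cutoff are listed.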
# [2] = biological target: ASPH, Q12797
# Procedure: as §1
# [3] = biological target: DCUN1D5, Q9BTE7
# Procedure: as §1
# [4] = biological target: EIF2B5, Q13144
# Procedure: as §1
# [5] = biological target: INTS12, Q96CB8
# Procedure: as §1
# [6] = biological target: KARS, Q15046
# Procedure: as §1
# [7] = biological target: MKI67, P46013
# Procedure: as §1
# [8] = biological target: MRPS22, P82650
# Procedure: as §1
# [9] = biological target: NMNAT1, Q9HAN9
# Procedure: as §1
# [10] = biological target: PHF3, Q92576
# Procedure: as §1
# [11] = biological target: PUM1, Q14671
# Procedure: as §1
# [12] = biological target: RBMXL1, Q96E39
# Procedure: as §1
# [13] = biological target: S100A8, P05109
# Procedure: as §1
# [14] = biological target: SCP2, P22307
# Procedure: as §1
# [15] = biological target: TRMT5, Q32P41
# Procedure: as §1
# [16] = biological target: XRN1, Q8IZH2
# Procedure: as §1
# [17] = biological target: ANXA7, P20073
# Procedure: as §1
# [18] = biological target: AP2A1, O95782
# Procedure: as §1
# [19] = biological target: AP2B1, P63010
# Procedure: as §1
# [20] = biological target: AP2M1, Q96CW1
# Procedure: as §1
# [21] = biological target: COX4I1, P13073
# Procedure: as §1
# [22] = biological target: EIF2B3, Q9NR50
# Procedure: as §1
# [23] = biological target: EIF3B, P55884
# Procedure: as §1
# [24] = biological target: EWSR1, Q01844
# Procedure: as §1
# [25] = biological target: FUS, P35637
# Procedure: as §1
# [26] = biological target: HINT1, P49773
# Procedure: as §1
# [27] = biological target: HNRNPA2B1, P22626
# Procedure: as §1
# [28] = biological target: HNRNPA3, P51991
# Procedure: as §1
# [29] = biological target: KHDRBS1, Q07666
# Procedure: as §1
# [30] = biological target: NDUFA10, O95299
# Procedure: as §1
# [31] = biological target: NME4, O00746
# Procedure: as §1
# [32] = substrate: NONO, Q15233
# Procedure: as §1
# [33] = biological target: NUDT21, O43809
# Procedure: as §1
# [34] = biological target: SFPQ, P23246
# Procedure: as §1
# [35] = biological target: SOAT1, P35610
# Procedure: as §1
# [36] = biological target: SPAG7, O75391
# Procedure: as §1
# [37] = biological target: TNRC6A, Q8NDV7
# Procedure: as §1
# [38] = biological target: YIF1A, O95070
# Procedure: as §1
# [39] = biological target: ZNF687, Q8N1G0
# Procedure: as §1
# [40] = biological target: ZNF770, Q6IQ21
# Procedure: as §1
Binder,PRISMA enrichment of interactor (log2) [1],PRISMA enrichment of interactor (log2) [2],PRISMA enrichment of interactor (log2) [3],PRISMA enrichment of interactor (log2) [4],PRISMA enrichment of interactor (log2) [5],PRISMA enrichment of interactor (log2) [6],PRISMA enrichment of interactor (log2) [7],PRISMA enrichment of interactor (log2) [8],PRISMA enrichment of interactor (log2) [9],PRISMA enrichment of interactor (log2) [10],PRISMA enrichment of interactor (log2) [11],PRISMA enrichment of interactor (log2) [12],PRISMA enrichment of interactor (log2) [13],PRISMA enrichment of interactor (log2) [14],PRISMA enrichment of interactor (log2) [15],PRISMA enrichment of interactor (log2) [16],PRISMA enrichment of interactor (log2) [17],PRISMA enrichment of interactor (log2) [18],PRISMA enrichment of interactor (log2) [19],PRISMA enrichment of interactor (log2) [20],PRISMA enrichment of interactor (log2) [21],PRISMA enrichment of interactor (log2) [22],PRISMA enrichment of interactor (log2) [23],PRISMA enrichment of interactor (log2) [24],PRISMA enrichment of interactor (log2) [25],PRISMA enrichment of interactor (log2) [26],PRISMA enrichment of interactor (log2) [27],PRISMA enrichment of interactor (log2) [28],PRISMA enrichment of interactor (log2) [29],PRISMA enrichment of interactor (log2) [30],PRISMA enrichment of interactor (log2) [31],PRISMA enrichment of interactor (log2) [32],PRISMA enrichment of interactor (log2) [33],PRISMA enrichment of interactor (log2) [34],PRISMA enrichment of interactor (log2) [35],PRISMA enrichment of interactor (log2) [36],PRISMA enrichment of interactor (log2) [37],PRISMA enrichment of interactor (log2) [38],PRISMA enrichment of interactor (log2) [39],PRISMA enrichment of interactor (log2) [40]
AHGCRPEWRWLWLGR [RP11-464C19.3],8.73,3.7,5.24,4.4,4.47,4.61,4.85,5.07,4.81,5.08,5.49,4.6,4.06,5.93,4.54,4.46,–,–,–,–,–,–,–,–,–,–,–,–,–,–,–,–,–,–,–,–,–,–,–,–
DPWGRNEAWRYMGGF [NDUFB3],–,–,–,–,–,–,–,–,–,–,–,–,–,–,–,–,5.99,4.77,5.51,4.97,4.65,7.81,4.91,6.63,5.35,6.07,4.71,4.95,5.43,5.15,4.33,4.86,4.3,5.39,4.62,3.78,4.54,4.88,5.13,4.71
